Primary screen of a compound library

The filed quantity is “Percent Effect” (%). The record does not define 0% and 100%; most values in the screen are far below 50% and negative numbers occur (in some assays of this library far below -100). Compounds were drawn at random from those tested, without regard to their results. Two or more numbers in one place are separate tests of the same structure; such repeats can differ widely.

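Viability assay of Plasmodium falciparum sporozoites; the read-out is not stated. The concentration is filed as 10 mM, unlikely as a test dose, so the dose is not known. The record gives no direction; compounds that gave an IC50 in retests scored well above the rest, so higher reads as lower viability. Strong results were mostly tested again. Of about 34,000 compounds tested this way, about 280 (0.84%) reached 50% or more in at least one test.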

CN(C)C(=O)N1CCC2(CC1)C(=O)N(CC1CCOC1)c1ccccc12 (stereo not given) read -5.166%.
CC(c1cccc(S(N)(=O)=O)c1)N(C)CCCOc1ccccc1 (stereo not given) read -5.402%.
CS(=O)(=O)c1cncnc1C1CCCNC1.Cl (stereo not given) read 15.33%.
CN(C)CCNC(=O)c1cc2n(n1)CCN(C(=O)CC(C)(C)C)C2 read -19.02% & -16.35%.
CCn1c(CN(C)C)nnc1C1CCN(Cc2ccccn2)CC1 read 9.211%.
CCN1CCN(c2ncc(-c3cc(C)no3)c(-c3ccoc3C)n2)CC1 read -7.227%.
CC(C)(C)c1noc(CCCC(=O)NCC2CCS(=O)(=O)C2)n1 (stereo not given) read 0.9191%.
O=C(O)C(F)(F)F.[H][C@]12CCC[C@@]1(COCC(=O)N1CCCC1)CN(C1CCCC1)C2 read 1.378%.
c1ccc(-n2cnnc2CCCN2CCOCC2)cc1 read -16.46%.
Cc1cc(CN(C)C(=O)NC2CCN(S(C)(=O)=O)CC2)no1 read -11.82%.
CN(CCO)c1ncc(-c2ccc(NC(=O)[C@@H]3CCCCN3)cc2)cn1 read 10.75%.
Cc1nccn1CC1CCCN(C(=O)Cc2ccsc2)C1 (stereo not given) read 1.253%.
O=S(=O)(NCC1CCN(c2cnccn2)CC1)c1ccc(F)c(Cl)c1 read 12.62%.
Cc1ccc(NC2CCN(C(=O)c3cccc(F)c3F)CC2)nn1 read -13.37%.
CN1CCCC(Cc2cncc(C(=O)NCC3CC3)c2)C1 (stereo not given) read -2.014%.
Cc1nc(C)n(CC2CCCN(CCOc3ccccc3C#N)C2)n1 (stereo not given) read 12.74%.
Cn1cnnc1C1CCCN(C(=O)NCc2cc[nH]n2)C1 (stereo not given) read 7.416%.
O=C1NCCCC[C@@H]1Nc1ccc(-c2nc(C3CC3)no2)cn1 read 13.47%.
Cn1cc(C(=O)NC2CCCC2)c(-c2cccnc2)n1 read 3.671%.
Cn1cc(C2COC3(CCN(C(=O)c4ccsc4)CC3)C2)cn1 (stereo not given) read 8.849%.
CN(C)c1cc2c(nn1)CCN(C(=O)c1cc3ccccc3[nH]c1=O)C2 read -5.451%.
CC(C)c1nnc2n1CCN(C(=O)c1ccc(S(C)(=O)=O)cc1)C2 read -13.82%.
Cc1ncncc1-c1ccnc(N(C)C)n1 read 4.826%.
O=C(Cc1cccc2cccnc12)N1CCCN(c2cccnn2)CC1 read 8.919%.
Cc1nc(C)n(C2CCCN(C(=O)c3csc(C)n3)C2)n1 (stereo not given) read -0.4507%.
O=C1CC(c2ccccc2)C2(CCN(Cc3ccncc3)CC2)N1 (stereo not given) read -0.4866%.
O=C(O)C(F)(F)F.O=C(O)C(F)(F)F.[H][C@@]12CCN(Cc3cnn(C)c3)C[C@]1([H])[C@@H](CNc1ncccn1)OC2 read -0.5411%.
O=C1NCCN1C1CCN(CCOc2cccc3ccccc23)CC1 read 0.4468%.
[H][C@@]12CCCO[C@]1([H])[C@H](OCc1cccnc1)CN2C(=O)c1cccn1C read -5.839%.
[H][C@@]12COC[C@]1([H])[C@@H](OC)CN2C(=O)c1ccc[nH]1 read -0.4386%.
COCCNCc1cc2c(C)cc(C)cc2n2c(=O)n(C)nc12 read 8.328%.
COCCOc1ccc(NC(=O)C2CC(=O)N(C3CC3)C2)cn1 (stereo not given) read 15.52%.
CC/C=C(\C)CN1CCC(CNC(=O)c2ccc(=O)[nH]c2)CC1 read 5.789%.
CCN(Cc1cccnc1)CC1(C)Cc2c(N)nc(N)nc2O1 (stereo not given) read -5.028%.
CCc1nc(CN2CCN(C(=O)C3(C#N)CCCCC3)CC2)cs1 read 7.202%.
O=C(Cn1cc(C2CC2)nn1)N(Cc1ccco1)Cc1cccs1 read 2.477%.
c1coc(-c2[nH]c3ncccc3c2CN2CCCOCC2)c1 read 11.05%.

The first 3 entries again:

Compound	Percent Effect
CN(C)C(=O)N1CCC2(CC1)C(=O)N(CC1CCOC1)c1ccccc12 (stereo not given)	-5.166
CC(c1cccc(S(N)(=O)=O)c1)N(C)CCCOc1ccccc1 (stereo not given)	-5.402
CS(=O)(=O)c1cncnc1C1CCCNC1.Cl (stereo not given)	15.33

Data taken from ChEMBL document CHEMBL3988442, “University of Dundee, Small-Polar-MMV Screening Library” (2021).